# Percent effect of library compounds

Source: ChEMBL document CHEMBL3988442, “University of Dundee, Small-Polar-MMV Screening Library” (2021).

T. brucei: 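Whole-parasite assay of Trypanosoma brucei over 72 hours; the read-out is not stated. Concentration: 30 µM. Direction is inferred from retests: higher values go with stronger inhibition. Values scatter widely below zero; nearly all retest evidence comes from the higher of the two concentrations used. Size under these conditions: about 64,000 compounds, about 940 of them at 50% or above in at least one test.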
Leishmania in macrophages: 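Cell assay of Leishmania donovani living inside macrophages; the read-out is not stated. Compounds at 30 µM. Higher reads as stronger inhibition (inferred: compounds with an IC50 in retests scored well above the rest). Of about 69,000 compounds tested this way, about 1,000 (1.5%) reached 50% or more in at least one test.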

Values are the deposited “Percent Effect”, in %.
The controls that fix the scale are not given in the record; negative values are as filed.
This is an unselected part of the compounds tested.
Two or more numbers in one place are separate tests of the same structure; such repeats can differ widely.

For Cc1ccccc1CN1CCCN(S(=O)(=O)N(C)C2CCCCC2)CC1 the result was T. brucei: -15.88%; Leishmania in macrophages: 9.577%. CN(Cc1ccoc1)C(=O)Cn1ncc(N(C)C)cc1=O read T. brucei: 14.58%; Leishmania in macrophages: -1.56%. CCn1ccnc1CN(C)CC1CCCN1c1cccnn1 (stereo not drawn) gave T. brucei: -15.49%; Leishmania in macrophages: 45.47%. With Cn1cc(C(O)CNC(=O)c2ccc(F)cc2Cl)cn1 (stereo not drawn) the screen gave T. brucei: 3.538%; Leishmania in macrophages: -31.85%.

CN(C)C(=O)CC1CC2(CCN(Cc3ccoc3)CC2)c2ccccc21.O=C(O)C(F)(F)F (stereo not drawn) gave T. brucei: -22.74%; Leishmania in macrophages: -6.168%. Cc1c(C)n2c(SCC(=O)N3CCCCC3)nnc2[nH]c1=O gave T. brucei: -16.73%; Leishmania in macrophages: 6.472%. O=C(O)C(F)(F)F.O=C(c1cccnc1)N1CCC2(CC1)CC(Oc1ccccc1)CO2 (stereo not drawn) gave T. brucei: 6.834%; Leishmania in macrophages: 32.45%. COc1cc(CN(C)C(C)c2ccccn2)cc2c1OCO2 (stereo not drawn) gave T. brucei: -44.17%; Leishmania in macrophages: 1.798%.

OCCCNc1nc(O)c2c(n1)-c1ccccc1CC21CCCCC1 read T. brucei: -7.787%; Leishmania in macrophages: 28.37% & -36.88%. CC(C)c1cc2c(s1)NC(c1ccccc1)NC2=O (stereo not drawn) gave T. brucei: -15.77%; Leishmania in macrophages: 21.86%. Result for CCOC(C)C(=O)Nc1ccnn1-c1ccccc1C (stereo not drawn) was T. brucei: -3.471%; Leishmania in macrophages: 8.462%. Result for CC(C)CNC(=O)CN(C)S(C)(=O)=O was T. brucei: -40.17%; Leishmania in macrophages: -4.225%.

With CCN(C)S(=O)(=O)NCC1(c2cccc(Br)c2)CC1 the screen gave T. brucei: -27.37%; Leishmania in macrophages: -3.597%. CCc1cccc(N2CCC(NC(=O)C3CCCO3)CC2)c1 (stereo not drawn) gave T. brucei: -12.56%; Leishmania in macrophages: 18.14%. O=C(c1ccccc1C(F)(F)F)N1CC[C@@H](N2CCC(O)CC2)[C@H](O)C1 gave T. brucei: -14.24%; Leishmania in macrophages: -34.75%. With CCN(CC1CCCO1)C(=O)Nc1cc(C)ccc1S(C)(=O)=O (stereo not drawn) the screen gave T. brucei: 1.065%; Leishmania in macrophages: 25.01%.

Cc1cnn(CC(=O)N2CCCN(c3nc(C)cs3)CC2)c1 gave Leishmania in macrophages: 27.22%. Cc1nc2n(n1)CC(NCc1ccnc(-c3ccccc3)n1)CC2 (stereo not drawn) read T. brucei: -27.67%; Leishmania in macrophages: 16.85%. Result for Cc1c(C(=O)NCCC(=O)N2CCCC2)oc2c(F)cccc12 was T. brucei: -15.8%; Leishmania in macrophages: 27.79%. Cn1ccnc1CN1CCC2(CCCN2c2ncccn2)CC1.O=C(O)C(F)(F)F read Leishmania in macrophages: 3.454%.

For Cc1cnc(C)c(N2CCC(C(=O)O)(n3ccc(C(C)(C)C)n3)CC2)n1 the result was T. brucei: -55.07%; Leishmania in macrophages: 12.55%. Result for CC(C)(C)c1nnc(CN2CCCC2Cn2cncn2)o1 (stereo not drawn) was T. brucei: -0.1611%; Leishmania in macrophages: 27.3%. For O=C(O)c1ccc(S(=O)(=O)Nc2c(F)cccc2-n2cccn2)cc1 the result was T. brucei: -27.86%; Leishmania in macrophages: -7.569%. Cc1cnn(CC2CCCN2Cc2coc(-c3ccccc3)n2)c1 (stereo not drawn) gave T. brucei: -39.31%; Leishmania in macrophages: 7.124%.

For CCc1nc(C)c(CN2CCOC(Cc3cccc4ccccc34)C2)[nH]1 (stereo not drawn) the result was T. brucei: 19.18%; Leishmania in macrophages: 48.45%. With NCCC(Cc1ccccc1)c1ccco1 (stereo not drawn) the screen gave Leishmania in macrophages: -13.85%. With CCc1nc(CCNC(=O)Nc2ccc(C(=O)NC)cc2)cs1 the screen gave T. brucei: 3.79%; Leishmania in macrophages: 3.016%. With CCCN1CCCC2(CCN(Cc3cncn3C3CCCC3)C2)C1=O (stereo not drawn) the screen gave Leishmania in macrophages: 7.701%.

O=C1NCc2ccccc2CC12CCCN(CCCc1ccccc1)C2 (stereo not drawn) gave Leishmania in macrophages: 20.76%. Result for Cc1nc(CNCC2CCCN2c2cccnn2)cs1 (stereo not drawn) was T. brucei: -9.671%; Leishmania in macrophages: -1.715%. Cc1nccn1C1CCCN(C(=O)c2cc(O)nc3ccccc23)C1 (stereo not drawn) gave T. brucei: -36.12%; Leishmania in macrophages: 3.002%. O=C(CCc1ccc(-c2ccccc2)[nH]1)N1CCCC(n2ccnc2)C1 (stereo not drawn) read T. brucei: 26.72%; Leishmania in macrophages: 39.92%.

Result for COc1ccc2c(c1)NC(=O)C2OC(=O)CC(C)(C)C (stereo not drawn) was T. brucei: 5.484%; Leishmania in macrophages: 2.054%. For Cc1cc(NC(=O)CNC(C)(C)c2ccc3c(c2)OCCO3)no1 the result was T. brucei: -33.83%; Leishmania in macrophages: -13.45%. With c1cnn(CCNCc2csc(-c3ccc4c(c3)OCO4)n2)c1 the screen gave T. brucei: -12.4%; Leishmania in macrophages: -31.66%. With CCC(=O)N1CCC(Cc2cnc(Nc3cnccn3)cn2)CC1 the screen gave Leishmania in macrophages: 14.7%.

COc1ccc2[nH]cc(C(=O)N3C[C@@H](O)[C@H](NS(C)(=O)=O)C3)c2c1 read Leishmania in macrophages: 11.71%. For Cc1c[nH]c(C(=O)N2CCC(c3nnc(CN(C)CCO)n3C)CC2)c1 the result was T. brucei: -36.91%; Leishmania in macrophages: -0.5288%. For CCOc1ncccc1CNC(=O)CN1CCCCCC1=O the result was T. brucei: -39.2%; Leishmania in macrophages: -17.63%. For Cc1cccc(C)c1OCC(=O)N1CCOCC1c1ncon1 (stereo not drawn) the result was T. brucei: -19.49%; Leishmania in macrophages: 1.155%.

With O=C([C@H]1CCCO1)N1CC[C@H](O)[C@@H]1Cc1cccnc1 the screen gave T. brucei: -77.79%; Leishmania in macrophages: 27.4%. For C[S+]([O-])CCCNCc1cc(F)ccc1Br (stereo not drawn) the result was T. brucei: -24.31%; Leishmania in macrophages: -18.56%. For Cc1ccccc1OCCCC(=O)NCC1CN(C)CCO1 (stereo not drawn) the result was T. brucei: 1.105%; Leishmania in macrophages: -7.054%. COc1ccc(OC)c(-c2nc(CN(C)Cc3nonc3C)c(C)o2)c1 read T. brucei: -74.79%; Leishmania in macrophages: 20.83%.

CCS(=O)(=O)N1CCOC2(CCCN(c3cccc(C#N)c3)C2)C1 (stereo not drawn) read T. brucei: -16.07%; Leishmania in macrophages: -2.443%. For O=C(c1cccnc1-n1cncn1)N1CCN(CC2CC2)CC1 the result was T. brucei: 10.57%; Leishmania in macrophages: 18.57%.